From article PMC10599732
No constants are given. Whether binding was seen depends on the method and setting. Binding seen in cells or lysates may run through a third protein. Some binding calls cover weakened binding; strength is not graded here.

Sequences of proteins named here, by UniProt entry; tags and fusion partners are left off.
UniProt P09936: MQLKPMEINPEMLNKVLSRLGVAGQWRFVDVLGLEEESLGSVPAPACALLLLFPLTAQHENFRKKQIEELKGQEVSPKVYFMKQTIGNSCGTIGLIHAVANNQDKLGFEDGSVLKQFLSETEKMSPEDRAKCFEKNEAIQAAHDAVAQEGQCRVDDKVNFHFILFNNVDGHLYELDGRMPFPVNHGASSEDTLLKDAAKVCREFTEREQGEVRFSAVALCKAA
UniProt P14618: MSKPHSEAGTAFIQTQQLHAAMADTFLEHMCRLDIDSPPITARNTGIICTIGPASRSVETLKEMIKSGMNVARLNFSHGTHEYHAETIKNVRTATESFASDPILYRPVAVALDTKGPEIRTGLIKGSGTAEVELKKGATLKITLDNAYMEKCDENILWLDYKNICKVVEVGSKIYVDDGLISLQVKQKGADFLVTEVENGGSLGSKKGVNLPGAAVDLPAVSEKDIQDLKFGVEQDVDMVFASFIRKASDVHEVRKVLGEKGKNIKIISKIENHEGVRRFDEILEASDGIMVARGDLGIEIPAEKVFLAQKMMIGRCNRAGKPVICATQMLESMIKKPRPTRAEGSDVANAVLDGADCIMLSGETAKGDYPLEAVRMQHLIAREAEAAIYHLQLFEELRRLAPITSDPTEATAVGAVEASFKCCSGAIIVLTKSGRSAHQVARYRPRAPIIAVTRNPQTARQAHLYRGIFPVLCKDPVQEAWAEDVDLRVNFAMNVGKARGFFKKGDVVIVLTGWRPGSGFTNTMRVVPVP

Molecular target: Ubiquitin Carboxy-Terminal Hydrolase L1 (human (endogenous in T24 and J82)) (UniProt P09936)
Experiment: co-IP; endogenous proteins in T24 and J82 cell lysates; antibody on magnetic beads, GLB+ lysis buffer with protease inhibitors, 4°C overnight, 4 washes; Western blot

- binding: binds
Substance: Pyruvate kinase M2 (from UniProt P14618 1-531) (enzyme)
